Laboratory results published in paper PMC7396870.
These are yes or no findings as the source states them, for the method shown. Binding seen in cells or lysates may run through a third protein. Some results given as binding are weak or reduced against the parent protein; the word gives no strength. Sequences can lack the tags named with a protein. Values belong to the binder of their own block, whether it stands above or below them.

The chains behind the UniProt entries cited, without tags or fusion partners. Residues count along the entry.
UniProt P42260, residues 32-908: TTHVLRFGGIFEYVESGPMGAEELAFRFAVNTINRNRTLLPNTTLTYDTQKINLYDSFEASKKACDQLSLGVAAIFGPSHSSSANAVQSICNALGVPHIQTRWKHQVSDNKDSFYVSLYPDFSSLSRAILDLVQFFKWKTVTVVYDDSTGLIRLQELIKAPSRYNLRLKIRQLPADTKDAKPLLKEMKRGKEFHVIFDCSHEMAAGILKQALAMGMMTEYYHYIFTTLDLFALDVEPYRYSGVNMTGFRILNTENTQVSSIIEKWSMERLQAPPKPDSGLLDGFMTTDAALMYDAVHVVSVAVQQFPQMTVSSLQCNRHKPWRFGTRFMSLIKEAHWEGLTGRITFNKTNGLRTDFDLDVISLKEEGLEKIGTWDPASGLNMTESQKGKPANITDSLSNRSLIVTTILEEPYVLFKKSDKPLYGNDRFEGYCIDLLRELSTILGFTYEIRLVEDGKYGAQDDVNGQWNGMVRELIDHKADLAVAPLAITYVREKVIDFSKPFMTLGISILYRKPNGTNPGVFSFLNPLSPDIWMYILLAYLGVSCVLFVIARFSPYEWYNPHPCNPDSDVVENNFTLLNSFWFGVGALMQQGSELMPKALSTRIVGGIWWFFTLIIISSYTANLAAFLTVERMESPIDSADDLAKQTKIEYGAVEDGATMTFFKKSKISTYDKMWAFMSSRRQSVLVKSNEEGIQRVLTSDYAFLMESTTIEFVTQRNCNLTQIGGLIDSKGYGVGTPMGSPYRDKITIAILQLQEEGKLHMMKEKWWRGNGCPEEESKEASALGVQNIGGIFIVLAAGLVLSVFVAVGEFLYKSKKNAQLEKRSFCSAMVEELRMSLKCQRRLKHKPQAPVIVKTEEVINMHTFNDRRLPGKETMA

Molecular target: GluK2a (myc-tagged GluR6a(Q), from the plasmid pcDNA3.6 mycGluR6a(Q)) (UniProt P42260)
Assay: co-IP; HEK293T co-transfected with mycGluR6a(Q) plasmid and SEZ6 constructs; lysis after 72 h in 20 mM HEPES pH 7.4, 150 mM NaCl, 0.5% NP-40, 2 mM EDTA, 10% glycerol; GluK2a precipitated with GluR6/7 antibody on protein G agarose O/N at 4°C; SEZ6 constructs detected with anti-HA.11

B2: SEZ6 ectodomain (pFU HA-SLIC-Flagx2-mmSEZ6ecto) (domain or fragment, UniProt Q7TSK2-1 20-909)
chain: LSSEAPITGEGHATGIRETDGELTAAPTPEQSDRGVHFVTTAPTLKLLNHHPLLEEFLQEGLEREEAPQPALPFQPDSPTHFTPSPLPRLTNQDNRPVFTSPTPAVAAAPTQPHSREKPWNLESKPPELSITSSLPPGPSMAVPTLLPEDRPSTTPPSQAWTPTQEGPGDMDRPWVPEVMSKTTGLGVEGTIATSTASGDDEETTTTIITTTVTTVQPPGPCSWNFSGPEGSLDSPTAPSSPSDVGLDCFYYISVYPGYGVEIKVENISLQEGETITVEGLGGPDPLPLANQSFLLRGQVIRSPTHQAALRFQSLPLPAGPGTFHFRYQAYLLSCHFPRRPAYGDVTVTSLHPGGSAHFHCATGYQLKGARFLTCLNATQPFWDSQEPVCIAACGGVIRNATTGRIVSPGFPGNYSNNLTCHWLLEAPESQRLHLHFEKVSLAEDDDRLIIRNGNNVEAPPVYDSYEVEYLPIEGLLSSGRHFFVEFSTDSSGAAAGMALRYEAFQQGHCYEPFVKYGNFSSSAPSYPVGTTVEFSCDPGYTLEQGSIIIECVDLHDPQWNETEPACRAVCSGEITDSAGVVLSPNWPEPYGRGQDCIWGVHVEEDKRIMLDIRVLRIGSGDVLTFYDGDDLTARVLGQYSGPRGHFKLFTSMADVTIQFQSDPGTSALGYQQGFVIHFFEVPRNDTCPELPEIPNGWKNPSQPELVHGTVVTYQCYPGYQVVGSSILMCQWDLSWSEDLPSCQRVTSCHDPGDVEHSRRLISSPKFPVGATVQYVCDQGFVLTGSAILTCHDRQAGSPKWSDRAPKCLLEQFKPCHGLSAPENGARSPEKRLHPAGATIHFSCAPGYVLKGQASIKCVPGHPSHWSDPPPICRAASLDGFYNGRSLDVA
binding: binds

B4: SEZ6 C-terminal fragment generated by BACE1 cleavage (pFU HA-SLIC-Flagx2-mmSEZ6 CTF) (domain or fragment, UniProt Q7TSK2-1 907-991)
chain: DVAKAPAASSALDAAHLAAAIFLPLVAMVLLVGGVYLYFSRFQGKSPLQLPRTHPRPYNRITVESAFDNPTYETGSLSFAGDERI
binding: no binding

Now from value to binder:

binding: binds
B1: SEZ6 lacking the C-terminal 39 amino acids (pFU HA-SLIC-Flagx2-mmSEZ6Δcyto) (domain or fragment, UniProt Q7TSK2-1 20-952)
chain: LSSEAPITGEGHATGIRETDGELTAAPTPEQSDRGVHFVTTAPTLKLLNHHPLLEEFLQEGLEREEAPQPALPFQPDSPTHFTPSPLPRLTNQDNRPVFTSPTPAVAAAPTQPHSREKPWNLESKPPELSITSSLPPGPSMAVPTLLPEDRPSTTPPSQAWTPTQEGPGDMDRPWVPEVMSKTTGLGVEGTIATSTASGDDEETTTTIITTTVTTVQPPGPCSWNFSGPEGSLDSPTAPSSPSDVGLDCFYYISVYPGYGVEIKVENISLQEGETITVEGLGGPDPLPLANQSFLLRGQVIRSPTHQAALRFQSLPLPAGPGTFHFRYQAYLLSCHFPRRPAYGDVTVTSLHPGGSAHFHCATGYQLKGARFLTCLNATQPFWDSQEPVCIAACGGVIRNATTGRIVSPGFPGNYSNNLTCHWLLEAPESQRLHLHFEKVSLAEDDDRLIIRNGNNVEAPPVYDSYEVEYLPIEGLLSSGRHFFVEFSTDSSGAAAGMALRYEAFQQGHCYEPFVKYGNFSSSAPSYPVGTTVEFSCDPGYTLEQGSIIIECVDLHDPQWNETEPACRAVCSGEITDSAGVVLSPNWPEPYGRGQDCIWGVHVEEDKRIMLDIRVLRIGSGDVLTFYDGDDLTARVLGQYSGPRGHFKLFTSMADVTIQFQSDPGTSALGYQQGFVIHFFEVPRNDTCPELPEIPNGWKNPSQPELVHGTVVTYQCYPGYQVVGSSILMCQWDLSWSEDLPSCQRVTSCHDPGDVEHSRRLISSPKFPVGATVQYVCDQGFVLTGSAILTCHDRQAGSPKWSDRAPKCLLEQFKPCHGLSAPENGARSPEKRLHPAGATIHFSCAPGYVLKGQASIKCVPGHPSHWSDPPPICRAASLDGFYNGRSLDVAKAPAASSALDAAHLAAAIFLPLVAMVLLVGGVYLYFSRFQGKS

binding: binds
B3: SEZ6 full length, HA- and 2xFlag-tagged (pFU HA-SLIC-Flagx2-mmSEZ6FL) (protein, UniProt Q7TSK2-1 20-991)
chain: LSSEAPITGEGHATGIRETDGELTAAPTPEQSDRGVHFVTTAPTLKLLNHHPLLEEFLQEGLEREEAPQPALPFQPDSPTHFTPSPLPRLTNQDNRPVFTSPTPAVAAAPTQPHSREKPWNLESKPPELSITSSLPPGPSMAVPTLLPEDRPSTTPPSQAWTPTQEGPGDMDRPWVPEVMSKTTGLGVEGTIATSTASGDDEETTTTIITTTVTTVQPPGPCSWNFSGPEGSLDSPTAPSSPSDVGLDCFYYISVYPGYGVEIKVENISLQEGETITVEGLGGPDPLPLANQSFLLRGQVIRSPTHQAALRFQSLPLPAGPGTFHFRYQAYLLSCHFPRRPAYGDVTVTSLHPGGSAHFHCATGYQLKGARFLTCLNATQPFWDSQEPVCIAACGGVIRNATTGRIVSPGFPGNYSNNLTCHWLLEAPESQRLHLHFEKVSLAEDDDRLIIRNGNNVEAPPVYDSYEVEYLPIEGLLSSGRHFFVEFSTDSSGAAAGMALRYEAFQQGHCYEPFVKYGNFSSSAPSYPVGTTVEFSCDPGYTLEQGSIIIECVDLHDPQWNETEPACRAVCSGEITDSAGVVLSPNWPEPYGRGQDCIWGVHVEEDKRIMLDIRVLRIGSGDVLTFYDGDDLTARVLGQYSGPRGHFKLFTSMADVTIQFQSDPGTSALGYQQGFVIHFFEVPRNDTCPELPEIPNGWKNPSQPELVHGTVVTYQCYPGYQVVGSSILMCQWDLSWSEDLPSCQRVTSCHDPGDVEHSRRLISSPKFPVGATVQYVCDQGFVLTGSAILTCHDRQAGSPKWSDRAPKCLLEQFKPCHGLSAPENGARSPEKRLHPAGATIHFSCAPGYVLKGQASIKCVPGHPSHWSDPPPICRAASLDGFYNGRSLDVAKAPAASSALDAAHLAAAIFLPLVAMVLLVGGVYLYFSRFQGKSPLQLPRTHPRPYNRITVESAFDNPTYETGSLSFAGDERI
